Data as given in PubChem BioAssay AID1508588 (Peter MacCallum Cancer Centre, 2020).

Screen: 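Genome-wide search for knock-downs that heighten vemurafenib action in melanoma cells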 (primary screen)
Cell system: human WM266.4 melanoma cells (BRAF V600 mutant)
Reagent: siRNA pool against human genes, 40 nM
Duration: 96 h from transfection to read-out
Conditions: vemurafenib 300 nM (about IC25), added 48 h after transfection, for 48 h; comparison arm got DMSO vehicle only
Read-out: 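Cell gain (DAPI nuclei at end minus before drug, mean of two replicates) and medium lactate by absorbance per cell, both as ratio to non-targeting siRNA, also grouped into fold-change classes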
Scale: cell gain with vemurafenib: higher = more cell gain than with non-targeting siRNA; lactate per cell with vemurafenib: higher = more lactate made per cell
Active means: 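a knock-down counts as enhancing when its fold-change classes with vehicle and with vemurafenib, taken together, show a stronger drug effect on cell gain or lactate per cell; exact class pairs not stated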
Meaning of the calls: active = enhances vemurafenib effect; inactive = no enhancement seen
The whole screen tested about 18,000 reagents; shown is a part drawn at random. 790 of all reagents (4.4%) count as active. 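Calls rest on a combination of fold-change classes in drug and vehicle arms, not all shown here.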 Reagents against one gene are numbered here.

target gene | reagent no. | cell gain with vemurafenib | lactate per cell with vemurafenib | call
TXNDC17 (thioredoxin domain containing 17) | 1 | 0.85 | 1.19 | inactive
ZNF322 (zinc finger protein 322) | 1 | 0.19 | 1.2 | inactive
ZNF607 (zinc finger protein 607) | 1 | 0.51 | 0.91 | inactive
SEPTIN4 (septin 4) | 1 | 0.67 | 1.22 | inactive
SEPTIN4 (septin 4) | 2 | 0.57 | 1.61 | inactive
LRRIQ4 (leucine rich repeats and IQ motif containing 4) | 1 | 0.36 | 0.8 | inactive
ZIC3 (Zic family zinc finger 3) | 1 | 0.73 | 0.89 | inactive
TBCE (tubulin folding cofactor E) | 1 | 0.94 | 0.72 | inactive
GRK2 (G protein-coupled receptor kinase 2) | 1 | 0.29 | 0.72 | inactive
ZNF528 (zinc finger protein 528) | 1 | 0.16 | 1.66 | inactive
DHODH (dihydroorotate dehydrogenase (quinone)) | 1 | 0.65 | 0.4 | inactive
NUP153 (nucleoporin 153) | 1 | 0.65 | 0.88 | inactive
SARNP (SAP domain containing ribonucleoprotein) | 1 | 0.36 | 0.63 | inactive
KRAS (KRas proto-oncogene, GTPase) | 1 | 0.06 | 1.27 | inactive
RGS6 (regulator of G protein signaling 6) | 1 | 0.63 | 1.46 | inactive
SCGN (secretagogin, EF-hand calcium binding protein) | 1 | 0.36 | 0.86 | inactive
TMEM101 (transmembrane protein 101) | 1 | 0.58 | 1.07 | inactive
MRPS11 (mitochondrial ribosomal protein S11) | 1 | 0.42 | 1.86 | inactive
REXO5 (RNA exonuclease 5) | 1 | 0.77 | 0.76 | inactive
TMEM59 (transmembrane protein 59) | 1 | 0.7 | 1.12 | inactive
SLC22A1 | 1 | 0.67 | 0.85 | inactive
UTS2B (urotensin 2B) | 1 | 0.34 | 1.12 | inactive
MARF1 (meiosis regulator and mRNA stability factor 1) | 1 | 0.67 | 0.76 | inactive
CLEC2B (C-type lectin domain family 2 member B) | 1 | 0.68 | 0.89 | inactive
TIAM1 (TIAM Rac1 associated GEF 1) | 1 | 0.75 | 0.76 | inactive
A2ML1 (alpha-2-macroglobulin like 1) | 1 | 0.87 | 0.94 | inactive
SMARCC1 (SWI/SNF related BAF chromatin remodeling complex subunit C1) | 1 | 0.58 | 1.1 | inactive
PRSS55 (serine protease 55) | 1 | 1.03 | 0.76 | inactive
VAC14 (VAC14 component of PIKFYVE complex) | 1 | 0.57 | 1.32 | inactive
FAM120B (family with sequence similarity 120 member B) | 1 | 0.69 | 1.13 | inactive
FBP1 (fructose-bisphosphatase 1) | 1 | 0.76 | 0.34 | inactive
SYNE4 (spectrin repeat containing nuclear envelope family member 4) | 1 | 0.69 | 1.02 | inactive
GLG1 (golgi glycoprotein 1) | 1 | 1.08 | 0.46 | inactive
MEIOB (meiosis specific with OB-fold) | 1 | 0.64 | 0.86 | inactive
OR56B1 (olfactory receptor family 56 subfamily B member 1) | 1 | 0.74 | 0.86 | inactive

Ordered by “lactate per cell with vemurafenib” (low to high): some entries from above
target gene | reagent no. | cell gain with vemurafenib | lactate per cell with vemurafenib | call
REXO5 (RNA exonuclease 5) | 1 | 0.77 | 0.76 | inactive
SLC22A1 | 1 | 0.67 | 0.85 | inactive
TMEM101 (transmembrane protein 101) | 1 | 0.58 | 1.07 | inactive
TMEM59 (transmembrane protein 59) | 1 | 0.7 | 1.12 | inactive
MRPS11 (mitochondrial ribosomal protein S11) | 1 | 0.42 | 1.86 | inactive

The list goes on:
target gene | reagent no. | cell gain with vemurafenib | lactate per cell with vemurafenib | call
LRRN2 (leucine rich repeat neuronal 2) | 1 | 0.56 | 0.88 | inactive
GLRA4 (glycine receptor alpha 4 (pseudogene)) | 1 | 0.74 | 1.19 | inactive
PEX6 (peroxisomal biogenesis factor 6) | 1 | 0.26 | 2.17 | inactive
TCERG1 (transcription elongation regulator 1) | 1 | 0.52 | 1.58 | inactive
SLC24A1 | 1 | 0.53 | 0.94 | inactive
CLEC10A (C-type lectin domain containing 10A) | 1 | 0.4 | 0.78 | inactive
DAPK2 (death associated protein kinase 2) | 1 | 0.48 | 1.17 | inactive
PDCD6IP (programmed cell death 6 interacting protein) | 1 | 0.82 | 0.33 | active
CA2 (carbonic anhydrase 2) | 1 | 0.54 | 1.96 | inactive
FLT1 (fms related receptor tyrosine kinase 1) | 1 | 0.92 | 0.64 | inactive
OR5H14 (olfactory receptor family 5 subfamily H member 14) | 1 | 0.33 | 1.08 | inactive
SETD9 (SET domain containing 9) | 1 | 0.44 | 0.66 | inactive
YWHAH | 1 | 0.36 | 2 | inactive
L1CAM-AS1 (L1CAM antisense RNA 1) | 1 | 0.56 | 1.14 | inactive
PRAP1 (proline rich acidic protein 1) | 1 | 0.31 | 1.92 | inactive
KRTAP2-4 (keratin associated protein 2-4) | 1 | 0.67 | 0.46 | active
ATG16L2 (autophagy related 16 like 2) | 1 | 0.82 | 0.85 | inactive
MPDZ (multiple PDZ domain crumbs cell polarity complex component) | 1 | 1.04 | 0.82 | inactive
SLC36A4 | 1 | 0.92 | 0.77 | inactive
ANP32E (acidic nuclear phosphoprotein 32 family member E) | 1 | 0.73 | 0.66 | inactive
RBM22 (RNA binding motif protein 22) | 1 | 0.36 | 0.49 | inactive
SDF4 (stromal cell derived factor 4) | 1 | 0.14 | 2.3 | inactive
NPHP3 (nephrocystin 3) | 1 | 0.83 | 1.06 | inactive
OLFML1 (olfactomedin like 1) | 1 | 0.52 | 0.54 | inactive
MRPL48 (mitochondrial ribosomal protein L48) | 1 | 0.56 | 1.01 | inactive
DMAC1 (distal membrane arm assembly component 1) | 1 | 0.27 | 1.9 | inactive
BCORL1 (BCL6 corepressor like 1) | 1 | 0.18 | -0.09 | active
CCDC120 (coiled-coil domain containing 120) | 1 | 0.53 | 1.4 | inactive
ZNF219 (zinc finger protein 219) | 1 | 0.93 | 0.57 | inactive
GRK5 (G protein-coupled receptor kinase 5) | 1 | 0.21 | 1.04 | inactive
CCT7 (chaperonin containing TCP1 subunit 7) | 1 | 0.2 | 1.03 | inactive
KRTAP5-11 (keratin associated protein 5-11) | 1 | 0.09 | 0.89 | inactive
SRSF3 (serine and arginine rich splicing factor 3) | 1 | -0.06 | 2.73 | inactive
OR11H12 (olfactory receptor family 11 subfamily H member 12) | 1 | 0.34 | 0.85 | inactive
OR9G1 (olfactory receptor family 9 subfamily G member 1) | 1 | 0.92 | 1.18 | inactive
P3H4 (prolyl 3-hydroxylase family member 4 (inactive)) | 1 | 0.52 | 1.04 | inactive
USP33 (ubiquitin specific peptidase 33) | 1 | 0.72 | 0.48 | inactive
DBT (dihydrolipoamide branched chain transacylase E2) | 1 | 0.86 | 0.73 | inactive
CIT (citron rho-interacting serine/threonine kinase) | 1 | 0.01 | 1.7 | inactive
GSX2 (GS homeobox 2) | 1 | 0.72 | 0.84 | inactive
LPAR2 (lysophosphatidic acid receptor 2) | 1 | 0.57 | 0.72 | inactive
CELA3A (chymotrypsin like elastase 3A) | 1 | 0.76 | 0.9 | inactive
YTHDF1 (YTH N6-methyladenosine RNA binding protein F1) | 1 | 0.86 | 0.67 | inactive
ZNF622 (zinc finger protein 622) | 1 | 0.63 | 0.54 | inactive
FDX1 (ferredoxin 1) | 1 | 0.71 | 0.92 | inactive
HIF1A (hypoxia inducible factor 1 subunit alpha) | 1 | 0.93 | 0.5 | inactive
CXCR2 (C-X-C motif chemokine receptor 2) | 1 | 0.58 | 1.96 | inactive
XPA (XPA, DNA damage recognition and repair factor) | 1 | 0.9 | 0.77 | inactive
STON2 (stonin 2) | 1 | -0.09 | 0.16 | active
